Measured values: patent US20240342186A1, “PYRIDINE DERIVATIVES WITH N-LINKED CYCLIC SUBSTITUENTS AS cGAS INHIBITORS” (Boehringer Ingelheim International GmbH, priority 2021, published 2024)

Amino acid sequences for entries named in this document (tags omitted).
UniProt Q8N884, whole entry: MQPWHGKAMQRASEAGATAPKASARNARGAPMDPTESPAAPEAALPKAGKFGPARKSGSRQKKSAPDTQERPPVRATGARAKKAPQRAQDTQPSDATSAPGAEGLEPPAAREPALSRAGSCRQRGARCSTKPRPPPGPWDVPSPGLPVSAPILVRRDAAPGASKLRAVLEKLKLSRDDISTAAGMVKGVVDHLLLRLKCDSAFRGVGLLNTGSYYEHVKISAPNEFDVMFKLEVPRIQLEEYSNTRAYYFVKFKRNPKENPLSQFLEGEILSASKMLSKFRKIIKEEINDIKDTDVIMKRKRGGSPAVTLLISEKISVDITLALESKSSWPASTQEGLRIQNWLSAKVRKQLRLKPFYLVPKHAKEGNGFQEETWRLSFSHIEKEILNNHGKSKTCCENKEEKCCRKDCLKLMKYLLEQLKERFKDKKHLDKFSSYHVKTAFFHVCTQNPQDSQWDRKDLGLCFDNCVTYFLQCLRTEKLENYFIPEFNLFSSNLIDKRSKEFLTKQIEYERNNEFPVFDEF

Key:
[1] = test system: cGAMP-stimulated THP1-Dual cells (pathway directly downstream of cGAS); test: cGAMP stimulated counter cell assay: inhibition of IFN induction in cGAMP-stimulated THP1 cells (THP1(cGAMP) IC50); assay type: cell-based, human
From the text: (§1) 6.2 Method: Human cGAS Cell Assay and cGAMP Stimulated Counter Cell Assay (THP1(vir) IC50 and THP1(cGAMP) IC50)
(§2) THP1-Dual™ cells (InvivoGen #thpd-nfis) expressing IRF dependent Lucia luciferase reporter were used as basis for both assays. For the detection of cellular cGAS activity cells were stimulated by a baculovirus (pFastbac-1, Invitrogen, no coding insert) infection that delivers the cGAS enzyme stimulating double-stranded DNA (measurement of THP1(vir) IC50).
(§3) For the counter assay, cells were stimulated by cGAMP (SigmaAldrich #SML1232) to activate the identical pathway independent and directly downstream of cGAS (measurement of THP1(cGAMP) IC50). Pathway activity was monitored by measuring the Lucia luciferase activity induced by either DNA stimulated cGAS enzyme activity (measurement of THP1(vir) IC50) or by cGAMP directly (measurement of THP1(cGAMP) IC50, counter assay). […]
(§4) Following that, 15 μl of QuantiLuc detection reagent (InvivoGen #rep-qlcg5) were added to each well using a MultiDrop Combi. Measurement was done immediately after the addition using an EnVision reader (US-luminescence read-mode).
(§5) For data evaluation and calculation, the measurement of the low control was set as 0% control and the measurement of the high control was set as 100% control. The IC50 values were calculated using the standard 4 parameter logistic regression formula. […]

[2] = test system: cellular cGAS activity in dsDNA-stimulated human whole blood; test: Human whole blood assay (hWB IC50): IFNα2α production after dsDNA transfection; conditions: read-out: hWB IC50; inhibition of IFN induction in dsDNA-stimulated human whole blood
[3] = test system: cellular cGAS activity in baculovirus-stimulated THP1-Dual cells (IRF dependent Lucia luciferase reporter); test: Human cGAS cell assay: inhibition of IFN induction in virus-stimulated THP1 cells (THP1(vir) IC50); assay type: cell-based; conditions: read-out: THP1(vir) IC50
From the text: as §1, §2, §3, §4, §5

[4] = molecular target: cGAS (Homo sapiens (Human), UniProt Q8N884); test: Human cGAS enzyme assay (hcGAS IC50, in vitro), cGAMP formation by RapidFire MS; conditions: read-out: hcGAS IC50; biochemical (in vitro) cGAS inhibition;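 also: enzyme activated by 45 bp dsDNA with GTP and ATP (30 µM each), 60 min compound pre-incubation then 90 min reaction, cGAMP relative to cyclic-di-GMP internal standard, 8-point dilutions up to 10 µM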

IC50 [2]: 9.51 µM | IC50 [3]: 0.775 µM | IC50 [4]: 0.014 µM
SMILES: CC1(C#N)CCCN(c2cc(Cl)cnc2O[C@H]2C[C@@H](C(=O)O)N(c3nc(C(F)(F)F)nc4c3oc3ccccc34)C2)C1 (some centres unmarked)
IC50 ([1]; read-out: THP1(cGAMP) IC50, inhibition of IFN induction in cGAMP-stimulated THP1 cells): 12.5 µM | Ratio THP1(cGAMP) IC50 / THP1(vir) IC50 ([1]; selectivity for cGAS inhibition): 16

The match of structure and compound is tentative.
